{
  "source": "patent US20080201790A1",
  "about": "“Method and product for regulating cell responsiveness to external signals” (priority 1993, published 2008)",
  "test_system": "L929 cells",
  "test": "Neutral red cell viability assay of L929 cells treated with TNFα and/or bFGF",
  "type": "cell-based, murine",
  "method": "In panel A cells were treated with the indicated concentrations of TNFα for 15 hours and were assayed for uptake of neutral red. In panel B cells were untreated (solid bars), treated with 0.5 ng/ml bFGF (dotted bars) or 5.0 ng/ml bFGF (hatched bars) and the indicated concentrations of TNFα for 18 hours. Cell viability was assessed by neutral red assay.\nIn panel A serum starved L929 cells were untreated or treated for 1 hour at 37° C. with the MEK-1 inhibitor (PD) and then unstimulated or stimulated with bFGF. MAPK activity was measured. […] Cell viability was assessed by neutral red assay.\nCell lines and culture. […] JNK activity was measured using a solid state kinase assay in which glutathione S-transferase-c-Jun (1-79) (GST-JUN) cound to glutathione-Sepharose 4B beads was used to affinity purify JNK and then JNK activity was measured in an in vitro kinase assay using the sepharose bound GST-Jun as a substrate (Hibi, M., et al. (1993) Genes & Development 7:2135-2148). […] MAPK Assay MAPK activity was measured exactly as described previously (Gardner, A. M., et al. (1994) Meth. Enzymol. 238:258-270) with the exception that MonoQ FPLC fractionation was replaced by step elution from a DEAE-Sephacel column using 0.5 M NaCl in loading buffer. […]",
  "note": "At least one structure is not confirmed: it was looked up by name or label, or the drawing left a doubt.",
  "data": [
    {"compound": "COC[C@H]1OC(=O)c2coc3c2[C@@]1(C)C1=C(C3=O)[C@@H]2CCC(=O)[C@@]2(C)C[C@H]1OC(C)=O", "note": "[wortmannin, reference compound]", "values": [
      {"measurement": "effect on TNFα-mediated cell death", "result": "did not influence the cell death response to TNFα"}
    ]}
  ]
}
